Laboratory results published in patent publication US6359168B1, “Compounds derived from menthol and use as refreshing agent” (Firmenich SA, priority 1998, dated 2002).

Assays:
buccal mucosae = experiment: Taste and cooling effect of the compound when tasted; format: in vivo, human
expert flavourists = experiment: Grapefruit-flavoured sweets compared by expert flavourists under blind conditions; format: in vivo, human; conditions: 0.05% in grapefruit-flavoured sweets
Method: Grapefruit-flavoured sweets were prepared from boiled sugar, 1% citric acid, and 0.05% of a grapefruit flavouring of the following formula: Under blind conditions, expert flavourists then compared these sweets, without any additives, with sweets of the same composition to which certain compounds according to the invention had been added.

With COCCOCC(=O)O[C@@H]1C[C@H](C)CC[C@H]1C(C)C [(1R,2S,5R)-3-menthyl 3,6-dioxaheptanoate] the taste (buccal mucosae) was “bitter taste” and the “taste / organoleptic profile” value (expert flavourists) was “a bitterness which reinforced the natural bitterness of the grapefruit essence”.

In the case of COCC(=O)O[C@@H]1C[C@H](C)CC[C@H]1C(C)C [(1R,2S,5R)-3-menthyl methoxyacetate, (1R,2S,5R)-3-methyl methoxyacetate], the taste (buccal mucosae) is reported as “head note fruity taste resembling that of menthyl acetate” and the “taste / organoleptic profile” value (expert flavourists) is reported as “does not modify the organoleptic profile of the base composition”.

CC(C)[C@@H]1CC[C@@H](C)C[C@H]1OC(=O)COCCOCCOCCO [(1R,2S,5R)-menthyl 11-hydroxy-3,6,9-trioxaundecanoate] was tested, and the taste (buccal mucosae) was “slightly bitter, mentholated taste”.
